Results as given in PMC5859151.
Results are given in words; binding and its absence hold for the method and conditions named. In cells and extracts the contact can be indirect. Some binding calls cover weakened binding; strength is not graded here. For some assays here: Tags and fused reporters may be left off the sequences shown.

The chains behind the UniProt entries cited, without tags or fusion partners. Where a name states a change or a piece, a line headed by the entry shows the natural chain unless it says otherwise. A line that says so, or that is headed by a name, gives the form on record, which may keep a tag or linker.
CFTRΔF508, full-length, produced in TNT T7 coupled reticulocyte lysate (P13569, form named): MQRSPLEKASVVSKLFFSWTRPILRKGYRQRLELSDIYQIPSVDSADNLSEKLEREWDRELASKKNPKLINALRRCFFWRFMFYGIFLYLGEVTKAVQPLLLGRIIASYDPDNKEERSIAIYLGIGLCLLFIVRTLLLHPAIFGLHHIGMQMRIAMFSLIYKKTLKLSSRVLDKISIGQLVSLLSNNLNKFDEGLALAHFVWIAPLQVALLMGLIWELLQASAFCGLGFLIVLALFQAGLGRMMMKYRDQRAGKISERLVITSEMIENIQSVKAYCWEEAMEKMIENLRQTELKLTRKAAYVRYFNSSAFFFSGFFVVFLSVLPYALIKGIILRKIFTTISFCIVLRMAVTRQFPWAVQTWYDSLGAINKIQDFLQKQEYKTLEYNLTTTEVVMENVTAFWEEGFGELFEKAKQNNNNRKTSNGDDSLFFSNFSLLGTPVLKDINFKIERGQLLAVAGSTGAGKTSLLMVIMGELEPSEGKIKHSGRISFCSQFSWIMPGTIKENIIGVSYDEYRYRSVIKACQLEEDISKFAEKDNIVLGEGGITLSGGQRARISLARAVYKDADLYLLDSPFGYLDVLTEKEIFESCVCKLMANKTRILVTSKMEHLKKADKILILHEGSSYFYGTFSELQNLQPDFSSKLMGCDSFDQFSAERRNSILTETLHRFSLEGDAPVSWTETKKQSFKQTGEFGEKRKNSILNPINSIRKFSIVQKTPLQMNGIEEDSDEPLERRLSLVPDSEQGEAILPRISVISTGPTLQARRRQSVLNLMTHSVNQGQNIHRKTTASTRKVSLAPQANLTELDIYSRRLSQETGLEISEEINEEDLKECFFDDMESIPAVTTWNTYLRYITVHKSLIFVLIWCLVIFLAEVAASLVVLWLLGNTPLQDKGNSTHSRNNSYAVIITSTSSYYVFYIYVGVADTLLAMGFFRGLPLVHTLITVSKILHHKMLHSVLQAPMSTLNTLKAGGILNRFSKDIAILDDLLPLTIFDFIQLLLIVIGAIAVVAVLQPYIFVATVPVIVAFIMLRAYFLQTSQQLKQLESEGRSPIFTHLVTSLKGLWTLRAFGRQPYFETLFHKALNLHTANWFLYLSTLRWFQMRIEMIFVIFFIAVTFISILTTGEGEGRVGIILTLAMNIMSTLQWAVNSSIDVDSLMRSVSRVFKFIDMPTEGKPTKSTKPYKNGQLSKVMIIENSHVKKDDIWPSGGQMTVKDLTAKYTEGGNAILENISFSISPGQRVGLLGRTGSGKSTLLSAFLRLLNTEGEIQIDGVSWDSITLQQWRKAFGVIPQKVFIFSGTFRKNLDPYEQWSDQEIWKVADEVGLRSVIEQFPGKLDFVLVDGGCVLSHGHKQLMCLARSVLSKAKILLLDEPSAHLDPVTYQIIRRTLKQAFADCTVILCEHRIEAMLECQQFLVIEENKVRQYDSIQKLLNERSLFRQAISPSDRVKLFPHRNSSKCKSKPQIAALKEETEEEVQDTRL
UniProt Q99942: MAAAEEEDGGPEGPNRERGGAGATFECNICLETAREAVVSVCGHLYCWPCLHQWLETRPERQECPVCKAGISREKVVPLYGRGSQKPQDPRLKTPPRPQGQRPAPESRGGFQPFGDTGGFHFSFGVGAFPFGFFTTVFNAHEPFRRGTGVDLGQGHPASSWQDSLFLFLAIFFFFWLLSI

How the values were obtained:
[1] = target: T1, VIMP (Selenoprotein S), endogenous (human (endogenous in CFBE41o−-CFTRΔF508 cells; cell line of Fig. 4A not stated)) (UniProt Q9BQE4); assay: co-IP; endogenous proteins in cell extracts (cell line not stated); reciprocal IP with anti-VIMP or anti-RNF5 antibody (pre-immune IgG as control); immunoblotting
T1 sequence (chain, selenocysteine (position not printed)): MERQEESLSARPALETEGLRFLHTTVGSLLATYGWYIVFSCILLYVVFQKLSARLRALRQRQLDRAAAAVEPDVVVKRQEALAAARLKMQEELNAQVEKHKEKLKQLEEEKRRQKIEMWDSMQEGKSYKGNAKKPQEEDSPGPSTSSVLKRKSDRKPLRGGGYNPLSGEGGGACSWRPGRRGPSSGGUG

[2] = target: T1, VIMP (Selenoprotein S), endogenous (human (endogenous in CFBE41o−-CFTRΔF508 cells; cell line of Fig. 4A not stated)); assay: co-IP; extracts of CFBE41o−-CFTRΔF508 cells; IP with anti-VIMP or anti-CFTR antibody (pre-immune IgG as control), Protein A/G Dynabeads; lysis buffer 50 mM HEPES, 150 mM NaCl, 1 mM EDTA, 1% NP40, 10% glycerol; immunoblotting
[3] = target: CFTRΔF508 expressed in CFBE41o− cells (human) (UniProt P13569); assay: as above
[4] = target: RNF5 E3 ubiquitin ligase, endogenous (human (endogenous; cell line not stated, only human lines are used in the paper)) (UniProt Q99942); assay: co-IP; endogenous proteins in cell extracts (cell line not stated); reciprocal IP with anti-VIMP or anti-RNF5 antibody (pre-immune IgG as control); immunoblotting
[5] = target: CFTRΔF508, full-length, produced in TNT T7 coupled reticulocyte lysate (human) (UniProt P13569); assay: co-IP; CFTRΔF508 and Flag-VIMP made together in TNT T7 coupled reticulocyte lysate (30 °C, 90 min), diluted with cell lysis buffer; IP with anti-CFTR antibody and Protein G Dynabeads at room temperature for 1 h; immunoblotting with anti-VIMP and anti-CFTR

“RNF5 E3 ubiquitin ligase, endogenous (from UniProt Q99942 1-180) (enzyme)” was tested, and the binding [1] was “binds”.

In the case of “CFTRΔF508 expressed in CFBE41o− cells (from UniProt P13569 1-1480)”, the binding [2] is reported as “binds”.

B1: VIMP (Selenoprotein S), endogenous (protein, UniProt Q9BQE4 1-189)
chain: T1 sequence (chain, selenocysteine (position not printed))
modifications: selenocysteine (position not given)
B1 was tested, and the binding [3] was “binds” and the binding [4] was “binds”.

B2: Flag-VIMP, full-length, produced in TNT T7 coupled reticulocyte lysate (protein, UniProt Q9BQE4 1-189)
chain: T1 sequence (chain, selenocysteine (position not printed))
B2 was tested, and the binding [5] was “binds”.
